In patent US11970454B1, “Ethyl-2[9-2(2-hydroxyquinolin-3-yl)-1,8-dioxo-3,4,9,10-tetrahydroacridine-10-yl]-acetate as an antimicrobial compound” (KING FAISAL UNIVERSITY, priority 2023, dated 2024):
At least one compound was matched to its structure with a doubt left.

Assays:
Assay type in all cases: cell-based
Candida albicans = assay: Antimicrobial (antifungal) screening by agar dilution, Candida albicans
Method: (§1) The antibacterial properties of the synthesized compound ethyl 2-[9-(2-hydroxyquinolin-3-yl)-1,8-dioxo-3,4,9,10-tetrahydroacridine-10-yl]-acetate were studied by the method of agar dilution. Test solutions of each compound was prepared in concentration of 1% using dimethylformamide as a solvent then they are diluted in physiological solution to obtain the final experimental dilutions 1:100, 1:200, 1:400, 1:800. The effect of these substances are compared with furacillin in a controllable study. The testing microbes used were gram positive bacteria Staphylococcus aureus, gram negative bacteria Pseudomonas aeruginosa and Escherichia coli and Candida albicans fungus. The experiments used for this survey were meat-pentonlu agar (EPA) for cultivation of bacteria and Saburo environment for the fungus. Each experiment used 1 mL of test solution on each plate […]. Two drops of emulsified with microbes feel were added. All experimental samples were taken from the agar after 10, 20, 40, 60 minutes in the environment on the basis of Patrk planted. The bacteria were cultivated at a temperature of 37° C. for 1 day and the mushroom was kept in a thermostat for […] at a temperature of 28° C. Then results were checked.

Staphylococcus aureus = assay: Antimicrobial screening by agar dilution, Staphylococcus aureus; details: St. Aereus
Method: as §1

Pseudomonas aeruginosa = assay: Antimicrobial screening by agar dilution, Pseudomonas aeruginosa; details: P.s. aeruginosa
Method: as §1

Escherichia coli = assay: Antimicrobial screening by agar dilution, Escherichia coli; details: E. Coli
Method: as §1

[1] = dilution rate 1:100, exposure time 10 min
[2] = dilution rate 1:100, exposure time 20 min
[3] = dilution rate 1:100, exposure time 40 min
[4] = dilution rate 1:100, exposure time 60 min
[5] = dilution rate 1:200, exposure time 10 min
[6] = dilution rate 1:200, exposure time 20 min
[7] = dilution rate 1:200, exposure time 40 min
[8] = dilution rate 1:200, exposure time 60 min
[9] = dilution rate 1:400, exposure time 10 min
[10] = dilution rate 1:400, exposure time 20 min
[11] = dilution rate 1:400, exposure time 40 min
[12] = dilution rate 1:400, exposure time 60 min
[13] = dilution rate 1:800, exposure time 10 min
[14] = dilution rate 1:800, exposure time 20 min
[15] = dilution rate 1:800, exposure time 40 min
[16] = dilution rate 1:800, exposure time 60 min

Structure (SMILES): NC(=O)N/N=C/c1ccc([N+](=O)[O-])o1 [Furacilin]
- antimicrobial activity (Candida albicans; [1]): −
- antimicrobial activity (Candida albicans; [2]): −
- antimicrobial activity (Candida albicans; [3]): +
- antimicrobial activity (Candida albicans; [4]): +
- antimicrobial activity (Candida albicans; [5]): +
- antimicrobial activity (Candida albicans; [6]): +
- antimicrobial activity (Candida albicans; [7]): +
- antimicrobial activity (Candida albicans; [8]): +
- antimicrobial activity (Candida albicans; [9]): +
- antimicrobial activity (Candida albicans; [10]): +
- antimicrobial activity (Candida albicans; [11]): +
- antimicrobial activity (Candida albicans; [12]): +
- antimicrobial activity (Candida albicans; [13]): +
- antimicrobial activity (Candida albicans; [14]): +
- antimicrobial activity (Candida albicans; [15]): +
- antimicrobial activity (Candida albicans; [16]): +
- antimicrobial activity (Staphylococcus aureus; [1]): −
- antimicrobial activity (Staphylococcus aureus; [2]): −
- antimicrobial activity (Staphylococcus aureus; [3]): −
- antimicrobial activity (Staphylococcus aureus; [4]): −
- antimicrobial activity (Staphylococcus aureus; [5]): +
- antimicrobial activity (Staphylococcus aureus; [6]): +
- antimicrobial activity (Staphylococcus aureus; [7]): +
- antimicrobial activity (Staphylococcus aureus; [8]): +
- antimicrobial activity (Staphylococcus aureus; [9]): +
- antimicrobial activity (Staphylococcus aureus; [10]): +
- antimicrobial activity (Staphylococcus aureus; [11]): +
- antimicrobial activity (Staphylococcus aureus; [12]): +
- antimicrobial activity (Staphylococcus aureus; [13]): +
- antimicrobial activity (Staphylococcus aureus; [14]): +
- antimicrobial activity (Staphylococcus aureus; [15]): +
- antimicrobial activity (Staphylococcus aureus; [16]): +
- antimicrobial activity (Pseudomonas aeruginosa; [1]): +
- antimicrobial activity (Pseudomonas aeruginosa; [2]): +
- antimicrobial activity (Pseudomonas aeruginosa; [3]): +
- antimicrobial activity (Pseudomonas aeruginosa; [4]): +
- antimicrobial activity (Pseudomonas aeruginosa; [5]): +
- antimicrobial activity (Pseudomonas aeruginosa; [6]): +
- antimicrobial activity (Pseudomonas aeruginosa; [7]): +
- antimicrobial activity (Pseudomonas aeruginosa; [8]): +
- antimicrobial activity (Pseudomonas aeruginosa; [9]): +
- antimicrobial activity (Pseudomonas aeruginosa; [10]): +
- antimicrobial activity (Pseudomonas aeruginosa; [11]): +
- antimicrobial activity (Pseudomonas aeruginosa; [12]): +
- antimicrobial activity (Pseudomonas aeruginosa; [13]): +
- antimicrobial activity (Pseudomonas aeruginosa; [14]): +
- antimicrobial activity (Pseudomonas aeruginosa; [15]): +
- antimicrobial activity (Pseudomonas aeruginosa; [16]): +
- antimicrobial activity (Escherichia coli; [1]): −
- antimicrobial activity (Escherichia coli; [2]): −
- antimicrobial activity (Escherichia coli; [3]): −
- antimicrobial activity (Escherichia coli; [4]): −
- antimicrobial activity (Escherichia coli; [5]): +
- antimicrobial activity (Escherichia coli; [6]): +
- antimicrobial activity (Escherichia coli; [7]): +
- antimicrobial activity (Escherichia coli; [8]): +
- antimicrobial activity (Escherichia coli; [9]): +
- antimicrobial activity (Escherichia coli; [10]): +
- antimicrobial activity (Escherichia coli; [11]): +
- antimicrobial activity (Escherichia coli; [12]): +
- antimicrobial activity (Escherichia coli; [13]): +
- antimicrobial activity (Escherichia coli; [14]): +
- antimicrobial activity (Escherichia coli; [15]): +
- antimicrobial activity (Escherichia coli; [16]): +
